In the supplement of paper PMC12823440, “Inhibitors supercharge kinase turnover through native proteolytic circuits” (Nature, 2025):
Counter-ions that a name gives are not always drawn. This is one part of the list. Hit calls seldom repeat between salt and free forms of one compound.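 Kinases, fused to nanoluciferase, were expressed in K562 cells; luminescence was measured every 4 h from 2 to 18 h as percent of control (DMSO = 100%, positive control = 0%). A time point is decreased if signal falls significantly (2 sigma). Hits were called by the authors by a rule that is not shown; the count of time points alone does not decide it.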

Target: RAF1 (UniProt P04049)
Experiment: number of time points (of 5) at which kinase-Nluc abundance scored as decreased, DMSO-normalised (count); higher = more persistent destabilization
Conditions: K562; 2-18 h

| SMILES | number of time points |
| --- | --- |
| COc1cc(N2CCOCC2)ccc1NC(=O)c1csc(-c2cccnc2)n1 [IRAK inhibitor 6] (10 µM) | 0 |
| CNc1nc(Nc2cn(C(C)(C)C#N)nc2C)ncc1C(F)(F)F (10 µM) | 0 |
| COc1nn(C)cc1Nc1nccc(-c2c[nH]c3c(NC(=O)[C@@H](C)N4CCN(C)CC4)cccc23)n1 (10 µM) | 0 |
| N#Cc1ccnc(Nc2cc(C3CCN(C4COC4)CC3)cc(N3CCC(F)(F)C3)n2)c1 (2.5 µM) | 0 |
| Cc1cccc2c3c(ccc12)C(=O)C1=C(OCC1C)C3=O (stereo not drawn) [Dihydroisotanshinone I] (2.5 µM) | 0 |
| CNc1nc(Nc2ccc(C(=O)N3CCOCC3)cc2OC)ncc1Cl (2.5 µM) | 0 |
| CCN(CC)c1ccc2cc(-c3nc4cc(C)ccc4o3)c(=O)oc2c1 (10 µM) | 0 |
| COc1ccccc1C(=O)/C=C/c1ccccc1C(=O)O (10 µM) | 0 |
| CC(=O)N1CCC(c2cc(-c3ccc(NC(=O)c4cccn(-c5ccc(F)cc5)c4=O)cc3F)c3c(N)ncnn23)CC1 (0.5 µM) | 0 |
| O[C@@H]1CO[C@H]2[C@@H]1OC[C@H]2Oc1nc2nc(-c3ccc(-c4ccccc4)cc3)c(Cl)cc2[nH]1 (10 µM) | 0 |

Target: RAF1_S257L (clone: RAF1_mut) (UniProt P04049)
Experiment: as above
Conditions: K562; 2-18 h

| SMILES | number of time points |
| --- | --- |
| C[C@@H]1COCCN1c1nc(-c2cnc(N)cc2C(F)F)nc(N2[C@H](C)COC[C@@H]2C)n1 (2.5 µM) | 0 |
| O=C(O)c1cc(=O)c2c(OCC(O)COc3cccc4oc(C(=O)O)cc(=O)c34)cccc2o1 [Cromolyn (sodium)] (10 µM) | 0 |
| CCc1ccc(OCC(=O)Nc2ccc(F)c([N+](=O)[O-])c2)cc1 (10 µM) | 0 |
| CC(C)S(=O)(=O)c1ccc2nccc(Nc3ccc4scnc4c3)c2c1 (10 µM) | 3 |
| CN1CC[C@@H](c2c(O)cc(O)c3c(=O)cc(-c4ccc(C(F)(F)F)cc4Cl)oc23)[C@@H]1CO [Voruciclib (hydrochloride)] (10 µM) | 0 |
| CC(C)=CC(=O)O[C@H]1Cc2cc3ccc(=O)oc3cc2OC1(C)C [Decursin] (10 µM) | 0 |
| CC(C)C[C@@H](C(=O)Nc1ccn(C[C@@H](O)CO)n1)N1CC(Oc2ccccc2Cl)=CC1=O [Dorzagliatin] (10 µM) | 0 |
| CC(C)N1CCN(c2ccc(Nc3ncc4cc5n(c4n3)C3(CCCCC3)CNC5=O)nc2)CC1 [Lerociclib (dihydrochloride)] (2 µM) | 1 |
| CCCCCCCCCCCCCCCCOP(=O)([O-])OCC[N+](C)(C)C [Miltefosine] (10 µM) | 0 |
| COCCNc1cc(NC(=O)N2CCCc3cc(CN4CCN(C)CC4=O)c(C=O)nc32)ncc1C#N [Roblitinib] (10 µM) | 0 |
| Cc1ccc(NC(=O)c2ccc(CN(CCN(C)C)C(=O)c3cccnc3)cc2)cc1Nc1nccc(-c2cccnc2)n1 [PDGFRα kinase inhibitor 1] (10 µM) | 0 |
| c1ccc(-c2nc(=NCCN3CCOCC3)sn2-c2ccccc2)cc1 [VP3.15 (dihydrobromide)] (10 µM) | 0 |
| O=C1NC(=Nc2c(Cl)cccc2Cl)S/C1=C\c1ccc2nccnc2c1 (2.5 µM) | 0 |
| Cc1cc(-c2ccnc(Nc3cnn(C)c3)n2)ccc1CNC(=O)N1CC(OC(C)C)C1 (10 µM) | 0 |
| CN(C)S(=O)(=O)c1ccc2c(c1)/C(=C/c1cc3c([nH]1)CCCC3)C(=O)N2 (2.5 µM) | 0 |
| Cc1cnc(NC2CCOCC2)nc1-n1cnc(C(=O)N[C@H](CN)c2cc(F)cc(Cl)c2)c1 (10 µM) | 0 |
| N#CC(c1ccnc(OCc2ccc(CN3CCOCC3)cc2)n1)c1nc2ccccc2s1 (stereo not drawn) [Bentamapimod] (2.5 µM) | 0 |
| Cc1c(-c2ccc(C(N)=O)c3[nH]c4cc(C(C)(C)O)ccc4c23)cccc1-n1cnc2ccccc2c1=O (2.5 µM) | 0 |
| CN(C)c1nc2c(Br)c(Br)c(Br)c(Br)c2[nH]1 (10 µM) | 0 |

| SMILES | number of time points |
| --- | --- |
| Nc1ncnc2c1c(-c1ccc(Oc3ccccc3)cc1)nn2C1CCN(CCOCCOCCOc2ccc3c(c2)CN(C2CCC(=O)NC2=O)C3=O)CC1 (stereo not drawn) (2.5 µM) | 0 |
| O=[N+]([O-])c1ccc(Nc2nc(N3CCOCC3)nc(N3CCOCC3)n2)cc1 (10 µM) | 0 |
| C[C@H](Nc1ncnc2[nH]cnc12)c1cc2ccc(F)cc2nc1-c1ccccn1 (10 µM) | 0 |
| CCc1cccc(CC)c1NC(=O)N1Cc2[nH]nc(NC(=O)c3ccc(N4CCN(C)CC4)cc3)c2C1 (2.5 µM) | 3 |
| CCc1cncnc1N1CCN(Cc2nc3ccc(C(F)(F)F)cc3[nH]2)CC1 (10 µM) | 0 |
| COc1cc(-c2cn[nH]c2)ccc1C(=O)Nc1ccc2c(c1)CCNCC2 (10 µM) | 0 |
| Cn1cc2cc(C(F)(F)c3nnc4ccc(-c5cnn(C6CC6)c5)nn34)c(F)cc2n1 [Bozitinib] (10 µM) | 0 |
| O=Nc1c2[nH]c3ccccc3nc-2c2ccccc12 [IQ-1S (free acid)] (2.5 µM) | 0 |
| CCN(CC)c1cc2oc(=O)c(-c3nc4ccccc4o3)cc2cc1C (2.5 µM) | 0 |
| COc1cc(N2CCOCC2)ccc1NC(=O)c1csc(-c2cccnc2)n1 [IRAK inhibitor 6] (10 µM) | 0 |
| CNc1nc(Nc2cn(C(C)(C)C#N)nc2C)ncc1C(F)(F)F (10 µM) | 0 |
| COc1nn(C)cc1Nc1nccc(-c2c[nH]c3c(NC(=O)[C@@H](C)N4CCN(C)CC4)cccc23)n1 (10 µM) | 0 |
| N#Cc1ccnc(Nc2cc(C3CCN(C4COC4)CC3)cc(N3CCC(F)(F)C3)n2)c1 (2.5 µM) | 0 |
| Cc1cccc2c3c(ccc12)C(=O)C1=C(OCC1C)C3=O (stereo not drawn) [Dihydroisotanshinone I] (2.5 µM) | 0 |
| CNc1nc(Nc2ccc(C(=O)N3CCOCC3)cc2OC)ncc1Cl (2.5 µM) | 0 |
| CCN(CC)c1ccc2cc(-c3nc4cc(C)ccc4o3)c(=O)oc2c1 (10 µM) | 0 |
| COc1ccccc1C(=O)/C=C/c1ccccc1C(=O)O (10 µM) | 0 |
| CC(=O)N1CCC(c2cc(-c3ccc(NC(=O)c4cccn(-c5ccc(F)cc5)c4=O)cc3F)c3c(N)ncnn23)CC1 (0.5 µM) | 0 |
| O[C@@H]1CO[C@H]2[C@@H]1OC[C@H]2Oc1nc2nc(-c3ccc(-c4ccccc4)cc3)c(Cl)cc2[nH]1 (10 µM) | 0 |
